From publication PMC8907200
No constants are given. Whether binding was seen depends on the method and setting. Binding seen in cells or lysates may run through a third protein. Some results given as binding are weak or reduced against the parent protein; the word gives no strength.

Key:
[1] = biological target: T1, ERRα (estrogen-related receptor alpha) (human (endogenous in MDA-MB-231)) (UniProt P11474); assay: co-IP; endogenous proteins in MDA-MB-231 lysate (50 mM Tris pH7.5, 150 mM NaCl, 1 mM EDTA, 1% Triton X-100, 8% glycerol); immunoprecipitation with anti-SET7 or anti-ERRα antibodies on Sepharose-protein A, 4 °C, rabbit IgG as control; immunoblotting
T1 sequence: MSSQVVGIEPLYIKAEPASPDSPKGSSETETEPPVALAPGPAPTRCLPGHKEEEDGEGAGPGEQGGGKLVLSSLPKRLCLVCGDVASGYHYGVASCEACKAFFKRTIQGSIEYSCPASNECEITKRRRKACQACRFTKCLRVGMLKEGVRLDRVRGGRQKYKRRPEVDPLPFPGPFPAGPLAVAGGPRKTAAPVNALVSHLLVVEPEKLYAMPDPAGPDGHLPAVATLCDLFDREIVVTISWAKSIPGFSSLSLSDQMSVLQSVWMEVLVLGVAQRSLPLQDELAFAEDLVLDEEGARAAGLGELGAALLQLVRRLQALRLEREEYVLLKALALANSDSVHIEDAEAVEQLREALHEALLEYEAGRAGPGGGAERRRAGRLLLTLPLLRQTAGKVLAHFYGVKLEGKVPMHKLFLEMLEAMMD

[2] = biological target: T1, ERRα (estrogen-related receptor alpha) (human (endogenous in MDA-MB-231)); assay: proximity ligation; Duolink PLA kit on MDA-MB-231 cells fixed with 2% paraformaldehyde, anti-SET7 and anti-ERRα antibodies, DAPI counterstain; endogenous proteins

B1: SET7 (protein, UniProt Q8WTS6 1-366)
chain: MDSDDEMVEEAVEGHLDDDGLPHGFCTVTYSSTDRFEGNFVHGEKNGRGKFFFFDGSTLEGYYVDDALQGQGVYTYEDGGVLQGTYVDGELNGPAQEYDTDGRLIFKGQYKDNIRHGVCWIYYPDGGSLVGEVNEDGEMTGEKIAYVYPDERTALYGKFIDGEMIEGKLATLMSTEEGRPHFELMPGNSVYHFDKSTSSCISTNALLPDPYESERVYVAESLISSAGEGLFSKVAVGPNTVMSFYNGVRITHQEVDSRDWALNGNTLSLDEETVIDVPEPYNHVSKYCASLGHKANHSFTPNCIYDMFVHPRFGPIKCIRTLRAVEADEELTVAYGYDHSPPGKSGPEAPEWYQVELKAFQATQQK
binding [1]: binds
binding [2]: binds
